PubChem BioAssay AID1053208 | Peter MacCallum Cancer Centre, 2014
Here is an unselected part of about 17,000 deposited reagents. 788 of all reagents (4.7%) were called active. 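Calls rest on z-score classes alone; an extra cut-off of viability at most 70% of control was not applied to them.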

- Aim: 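Genes whose silencing cuts survival of bone tumour cells only with doxorubicin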 (primary screen)
- Cells: mouse osteosarcoma cells, early-passage culture from an engineered mouse model of fibroblastic bone tumour
- Reagents: siRNA pool against mouse genes, 40 nM
- Time to read-out: about 120 h (48 h before drug, then 72 h with drug)
- Conditions: doxorubicin 100 nM for 72 h, roughly 30-40% inhibitory dose
- Read-out: 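Luminescent ATP signal taken as viability with or without 100 nM doxorubicin for 72 h; mean of two wells set against non-targeting siRNA and turned into robust z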
- Scale: viability z-score with doxorubicin and doxorubicin viability vs non-targeting: higher = more viable cells under doxorubicin; viability z-score without drug: higher = more viable cells with knock-down alone; z-score of drug to no-drug ratio: higher = less drug sensitisation by knock-down
- Call rule: 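a pool counts as active when its viability z-score with doxorubicin is -2 or below and its z-score without drug lies between -2 and 2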

no.	gene	combined z-score class	viability z-score with doxorubicin	viability z-score without drug	z-score of drug to no-drug ratio	doxorubicin viability vs non-targeting	outcome
1	Ston2	no change with or without drug	-0.34	-0.51	0.11	0.91	inactive
2	Zfp184	low cell count with doxorubicin only	-3.15	1.18	-3.71	0.66	active
3	Tnfrsf23	no change with or without drug	-1.12	-0.17	-1.01	0.84	inactive
4	Ndufs7	low cell count without drug only	-1.57	-2.19	0	0.8	inactive
5	Syngr1	low cell count with doxorubicin only	-2.59	-0.67	-2.25	0.71	active
6	Tle6	no change with or without drug	0.22	-0.84	1.01	0.96	inactive
7	Lctl	no change with or without drug	1.57	0.84	1.12	1.08	inactive
8	Or2a12	no change with or without drug	-1.24	-1.52	-0.11	0.83	inactive
9	Adrb1	no change with or without drug	0.56	0.67	0.22	0.99	inactive
10	Myo3b	no change with or without drug	1.12	1.69	0.11	1.04	inactive
11	Kif22	low cell count with doxorubicin only	-2.02	-0.67	-1.57	0.76	active
12	Deaf1	no change with or without drug	-0.22	-0.84	0.45	0.92	inactive
13	Cox5a	no change with or without drug	-0.22	-0.17	0	0.92	inactive
14	Or6c212	no change with or without drug	-0.9	-0.84	-0.22	0.86	inactive
15	Rps6ka2	no change with or without drug	0.11	-0.17	0.34	0.95	inactive
16	Fto	no change with or without drug	0.22	1.18	-0.45	0.96	inactive
17	Atxn7l1	no change with or without drug	0.45	0.17	0.45	0.98	inactive
18	Ino80c	no change with or without drug	0	-1.85	1.57	0.94	inactive
19	Zfp365	no change with or without drug	-0.45	0.51	-0.67	0.9	inactive
20	Drd2	no change with or without drug	-0.67	-0.67	-0.11	0.88	inactive
21	Or13a25	no change with or without drug	-0.9	-1.69	0.34	0.86	inactive
22	Zmiz1	high cell count with doxorubicin only	2.02	-0.51	2.7	1.12	inactive
23	Wdr45	low cell count with doxorubicin only	-2.14	-1.01	-1.57	0.75	active
24	Or5p76	no change with or without drug	-0.56	0	-0.45	0.89	inactive
25	Acads	no change with or without drug	0.22	-0.17	0.45	0.96	inactive
26	Epha5	no change with or without drug	-0.9	-0.17	-0.79	0.86	inactive
27	Rerg	no change with or without drug	0.79	-0.34	1.24	1.01	inactive
28	Wscd2	no change with or without drug	0.34	0.51	0.11	0.97	inactive
29	Arhgef10	no change with or without drug	-0.22	0.84	-0.67	0.92	inactive
30	Angptl6	no change with or without drug	-0.22	0.84	-0.67	0.92	inactive
31	Iscu	low cell count with and without drug	-4.05	-4.22	-1.69	0.58	inactive
32	Sharpin	no change with or without drug	-1.12	-0.17	-1.01	0.84	inactive
33	F13b	no change with or without drug	-0.56	-0.67	0	0.89	inactive
34	Or8c8	no change with or without drug	0.11	0	0.22	0.95	inactive
35	Sncaip	no change with or without drug	1.12	1.01	0.56	1.04	inactive
36	Porcn	high cell count with doxorubicin only	2.25	1.85	1.12	1.14	inactive
37	Drc5	high cell count with doxorubicin only	2.02	-0.34	2.47	1.12	inactive
38	Capn10	no change with or without drug	0.22	0.17	0.22	0.96	inactive
39	Stn1	no change with or without drug	-0.45	0.17	-0.45	0.9	inactive
40	Nfx1	no change with or without drug	1.57	-0.51	2.14	1.08	inactive
41	Klk1b4	no change with or without drug	-1.57	-0.51	-1.24	0.8	inactive
42	Icam2	no change with or without drug	0.56	-0.84	1.35	0.99	inactive
43	Igsf3	no change with or without drug	-0.9	0.51	-1.12	0.86	inactive
44	Psmb3	low cell count with and without drug	-5.62	-3.37	-4.38	0.44	inactive
45	Uros	no change with or without drug	0.67	-1.18	1.8	1	inactive
46	Dnaaf1	high cell count without drug only	1.35	4.05	-1.01	1.06	inactive
47	Eif3c	low cell count with and without drug	-6.41	-9.61	-0.11	0.37	inactive
48	Kcnn1	no change with or without drug	-0.67	0.51	-0.9	0.88	inactive
49	Zfp354a	no change with or without drug	0.9	1.01	0.34	1.02	inactive
50	Rpl24	no change with or without drug	0.34	1.35	-0.45	0.97	inactive

Part of the list above in another layout.
Ino80c | combined z-score class: no change with or without drug; viability z-score with doxorubicin: 0; viability z-score without drug: -1.85; z-score of drug to no-drug ratio: 1.57; doxorubicin viability vs non-targeting: 0.94; outcome: inactive
Zfp365 | combined z-score class: no change with or without drug; viability z-score with doxorubicin: -0.45; viability z-score without drug: 0.51; z-score of drug to no-drug ratio: -0.67; doxorubicin viability vs non-targeting: 0.9; outcome: inactive
Drd2 | combined z-score class: no change with or without drug; viability z-score with doxorubicin: -0.67; viability z-score without drug: -0.67; z-score of drug to no-drug ratio: -0.11; doxorubicin viability vs non-targeting: 0.88; outcome: inactive
Or13a25 | combined z-score class: no change with or without drug; viability z-score with doxorubicin: -0.9; viability z-score without drug: -1.69; z-score of drug to no-drug ratio: 0.34; doxorubicin viability vs non-targeting: 0.86; outcome: inactive
Zmiz1 | combined z-score class: high cell count with doxorubicin only; viability z-score with doxorubicin: 2.02; viability z-score without drug: -0.51; z-score of drug to no-drug ratio: 2.7; doxorubicin viability vs non-targeting: 1.12; outcome: inactive
